The values below come from article PMC11848624.

The chains behind the UniProt entries cited, without tags or fusion partners.
UniProt P19474: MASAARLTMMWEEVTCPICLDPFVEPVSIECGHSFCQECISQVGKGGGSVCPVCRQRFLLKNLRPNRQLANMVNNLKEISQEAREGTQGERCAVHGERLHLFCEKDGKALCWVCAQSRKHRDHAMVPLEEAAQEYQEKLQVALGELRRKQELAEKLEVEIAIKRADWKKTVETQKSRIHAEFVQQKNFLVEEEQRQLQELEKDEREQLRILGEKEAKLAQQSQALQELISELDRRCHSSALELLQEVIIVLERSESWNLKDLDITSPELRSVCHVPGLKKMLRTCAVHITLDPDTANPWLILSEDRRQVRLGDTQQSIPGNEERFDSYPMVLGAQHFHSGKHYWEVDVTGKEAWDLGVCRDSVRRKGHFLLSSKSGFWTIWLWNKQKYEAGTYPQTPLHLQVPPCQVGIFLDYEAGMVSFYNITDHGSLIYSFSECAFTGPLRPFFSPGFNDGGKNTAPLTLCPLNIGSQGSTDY

Results are given in words; binding and its absence hold for the method and conditions named. Binding seen in cells or lysates may run through a third protein. Some entries that bind do so weakly or less than the wild type. Tags and fused reporters may be left off the sequences shown.

This experiment has as its target T1, HIS-EPHX1 (UniProt P07099).
T1 sequence: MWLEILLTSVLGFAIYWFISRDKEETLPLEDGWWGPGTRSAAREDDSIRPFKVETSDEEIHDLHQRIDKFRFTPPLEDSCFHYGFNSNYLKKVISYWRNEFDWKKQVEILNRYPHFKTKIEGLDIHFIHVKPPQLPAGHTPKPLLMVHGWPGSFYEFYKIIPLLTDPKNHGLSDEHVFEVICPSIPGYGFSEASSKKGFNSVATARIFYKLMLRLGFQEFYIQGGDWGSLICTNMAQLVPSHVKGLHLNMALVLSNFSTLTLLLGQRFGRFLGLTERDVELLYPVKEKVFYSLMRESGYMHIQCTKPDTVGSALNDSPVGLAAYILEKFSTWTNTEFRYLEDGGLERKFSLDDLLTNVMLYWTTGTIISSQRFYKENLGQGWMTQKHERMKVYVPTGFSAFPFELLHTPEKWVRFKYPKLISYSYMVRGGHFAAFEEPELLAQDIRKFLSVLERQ
The experiment can be described thus: co-IP; BXPC3 and SW1990 cells overexpressing HIS-EPHX1, WT cells as negative control; immunoprecipitation with HIS-magnetic beads, overnight at 4 °C.

As for “TRIM21 (endogenous) (from UniProt P19474 1-475)”, the binding result is on record as “binds”.
